The other results are listed elsewhere or left out.
Compound: CC1Cc2ccccc2N1C(=O)C1CCCN(C1)C(=O)CCl (mixture of isomers) [TRIM25 ligand 11 (diastereomer mixture)]
Assay: probe-labelled cysteine peptide fold change vs DMSO (competition) (log2 fold change); higher = less target engagement (more negative = stronger competition)
Conditions: THP-1, incubation time: 4 h
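Note: competitive chemoproteomic profiling in live THP-1 cells with an iodoacetamide desthiobiotin (IA-DTB) probe, comparing probe-labelled peptide intensities in compound-treated cells against DMSO-treated controls.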

The chains behind the UniProt entries cited, without tags or fusion partners. Where a name states a change or a piece, a line headed by the entry shows the natural chain unless it says otherwise.
UniProt Q8ND04: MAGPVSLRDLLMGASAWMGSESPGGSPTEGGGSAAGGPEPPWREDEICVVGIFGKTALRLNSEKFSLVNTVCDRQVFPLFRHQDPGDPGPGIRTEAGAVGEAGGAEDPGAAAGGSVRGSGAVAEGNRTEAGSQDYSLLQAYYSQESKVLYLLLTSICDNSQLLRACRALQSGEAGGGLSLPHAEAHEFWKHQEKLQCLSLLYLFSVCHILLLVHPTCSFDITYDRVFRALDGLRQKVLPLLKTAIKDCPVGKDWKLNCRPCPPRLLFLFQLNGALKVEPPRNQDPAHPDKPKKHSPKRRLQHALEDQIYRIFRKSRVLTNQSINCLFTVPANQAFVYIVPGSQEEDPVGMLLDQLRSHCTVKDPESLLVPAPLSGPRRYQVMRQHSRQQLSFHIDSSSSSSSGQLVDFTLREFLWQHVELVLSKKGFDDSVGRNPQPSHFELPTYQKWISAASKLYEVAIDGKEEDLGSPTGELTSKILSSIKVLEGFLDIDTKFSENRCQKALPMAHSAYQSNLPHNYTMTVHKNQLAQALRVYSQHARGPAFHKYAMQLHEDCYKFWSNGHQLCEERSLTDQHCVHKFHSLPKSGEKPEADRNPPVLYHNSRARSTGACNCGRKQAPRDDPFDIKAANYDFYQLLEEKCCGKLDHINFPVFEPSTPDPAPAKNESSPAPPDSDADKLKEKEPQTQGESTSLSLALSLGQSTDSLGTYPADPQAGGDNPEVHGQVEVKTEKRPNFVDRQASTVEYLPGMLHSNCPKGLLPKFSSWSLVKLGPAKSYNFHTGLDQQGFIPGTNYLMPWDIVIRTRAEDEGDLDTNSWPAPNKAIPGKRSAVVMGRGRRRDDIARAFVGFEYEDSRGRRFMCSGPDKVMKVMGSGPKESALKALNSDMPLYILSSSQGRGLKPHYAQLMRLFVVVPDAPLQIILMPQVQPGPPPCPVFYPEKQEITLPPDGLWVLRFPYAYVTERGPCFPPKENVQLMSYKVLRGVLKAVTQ
UniProt Q16637, whole entry, looked up: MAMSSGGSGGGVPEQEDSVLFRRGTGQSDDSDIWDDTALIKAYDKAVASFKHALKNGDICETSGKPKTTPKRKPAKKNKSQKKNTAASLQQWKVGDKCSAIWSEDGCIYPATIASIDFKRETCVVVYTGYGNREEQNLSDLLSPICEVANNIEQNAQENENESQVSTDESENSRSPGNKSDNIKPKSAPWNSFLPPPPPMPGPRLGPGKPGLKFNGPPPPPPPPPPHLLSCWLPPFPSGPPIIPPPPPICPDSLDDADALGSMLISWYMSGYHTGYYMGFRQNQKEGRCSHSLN
UniProt Q6GMV2: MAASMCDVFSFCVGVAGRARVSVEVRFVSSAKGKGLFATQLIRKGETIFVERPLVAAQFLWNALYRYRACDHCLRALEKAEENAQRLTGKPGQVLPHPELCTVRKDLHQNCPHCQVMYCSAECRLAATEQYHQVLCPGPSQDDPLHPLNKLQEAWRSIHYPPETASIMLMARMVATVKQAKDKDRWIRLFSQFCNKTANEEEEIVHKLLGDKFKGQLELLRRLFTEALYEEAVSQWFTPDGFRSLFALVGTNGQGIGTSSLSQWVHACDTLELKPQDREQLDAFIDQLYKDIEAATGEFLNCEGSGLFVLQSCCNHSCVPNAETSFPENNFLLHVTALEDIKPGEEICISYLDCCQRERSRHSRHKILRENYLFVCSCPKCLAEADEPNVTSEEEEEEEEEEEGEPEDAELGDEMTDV
UniProt Q8TAQ2, whole entry, looked up: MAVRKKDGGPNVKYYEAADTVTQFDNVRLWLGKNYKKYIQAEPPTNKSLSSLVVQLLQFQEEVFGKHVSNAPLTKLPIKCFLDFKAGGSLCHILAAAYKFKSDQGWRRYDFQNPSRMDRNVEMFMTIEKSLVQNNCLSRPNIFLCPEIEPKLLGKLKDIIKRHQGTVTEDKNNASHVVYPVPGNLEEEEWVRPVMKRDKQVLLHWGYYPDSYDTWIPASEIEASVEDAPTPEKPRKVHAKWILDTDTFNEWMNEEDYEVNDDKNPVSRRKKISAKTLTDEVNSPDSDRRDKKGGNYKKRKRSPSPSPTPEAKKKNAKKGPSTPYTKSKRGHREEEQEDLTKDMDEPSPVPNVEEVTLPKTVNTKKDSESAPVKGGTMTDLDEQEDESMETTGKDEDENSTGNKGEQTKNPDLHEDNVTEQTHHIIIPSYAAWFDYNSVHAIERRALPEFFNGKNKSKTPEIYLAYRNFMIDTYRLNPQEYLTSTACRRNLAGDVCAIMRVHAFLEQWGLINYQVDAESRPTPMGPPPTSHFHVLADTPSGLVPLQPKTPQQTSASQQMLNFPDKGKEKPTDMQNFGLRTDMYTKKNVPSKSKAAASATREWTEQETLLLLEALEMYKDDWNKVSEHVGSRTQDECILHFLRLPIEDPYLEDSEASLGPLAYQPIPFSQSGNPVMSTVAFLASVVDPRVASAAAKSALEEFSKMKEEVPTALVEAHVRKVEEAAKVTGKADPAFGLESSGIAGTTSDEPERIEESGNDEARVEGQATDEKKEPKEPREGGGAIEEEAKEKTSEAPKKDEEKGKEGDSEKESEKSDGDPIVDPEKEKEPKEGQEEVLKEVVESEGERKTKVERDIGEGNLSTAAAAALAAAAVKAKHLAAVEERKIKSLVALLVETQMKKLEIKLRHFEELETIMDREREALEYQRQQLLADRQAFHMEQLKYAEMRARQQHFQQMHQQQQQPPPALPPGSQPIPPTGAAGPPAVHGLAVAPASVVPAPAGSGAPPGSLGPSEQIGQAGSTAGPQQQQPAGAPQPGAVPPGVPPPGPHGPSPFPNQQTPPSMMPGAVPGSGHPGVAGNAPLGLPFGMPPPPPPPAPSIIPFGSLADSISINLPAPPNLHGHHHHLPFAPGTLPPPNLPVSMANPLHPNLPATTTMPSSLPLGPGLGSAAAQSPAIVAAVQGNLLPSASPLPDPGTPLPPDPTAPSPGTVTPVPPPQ
UniProt Q96Q15: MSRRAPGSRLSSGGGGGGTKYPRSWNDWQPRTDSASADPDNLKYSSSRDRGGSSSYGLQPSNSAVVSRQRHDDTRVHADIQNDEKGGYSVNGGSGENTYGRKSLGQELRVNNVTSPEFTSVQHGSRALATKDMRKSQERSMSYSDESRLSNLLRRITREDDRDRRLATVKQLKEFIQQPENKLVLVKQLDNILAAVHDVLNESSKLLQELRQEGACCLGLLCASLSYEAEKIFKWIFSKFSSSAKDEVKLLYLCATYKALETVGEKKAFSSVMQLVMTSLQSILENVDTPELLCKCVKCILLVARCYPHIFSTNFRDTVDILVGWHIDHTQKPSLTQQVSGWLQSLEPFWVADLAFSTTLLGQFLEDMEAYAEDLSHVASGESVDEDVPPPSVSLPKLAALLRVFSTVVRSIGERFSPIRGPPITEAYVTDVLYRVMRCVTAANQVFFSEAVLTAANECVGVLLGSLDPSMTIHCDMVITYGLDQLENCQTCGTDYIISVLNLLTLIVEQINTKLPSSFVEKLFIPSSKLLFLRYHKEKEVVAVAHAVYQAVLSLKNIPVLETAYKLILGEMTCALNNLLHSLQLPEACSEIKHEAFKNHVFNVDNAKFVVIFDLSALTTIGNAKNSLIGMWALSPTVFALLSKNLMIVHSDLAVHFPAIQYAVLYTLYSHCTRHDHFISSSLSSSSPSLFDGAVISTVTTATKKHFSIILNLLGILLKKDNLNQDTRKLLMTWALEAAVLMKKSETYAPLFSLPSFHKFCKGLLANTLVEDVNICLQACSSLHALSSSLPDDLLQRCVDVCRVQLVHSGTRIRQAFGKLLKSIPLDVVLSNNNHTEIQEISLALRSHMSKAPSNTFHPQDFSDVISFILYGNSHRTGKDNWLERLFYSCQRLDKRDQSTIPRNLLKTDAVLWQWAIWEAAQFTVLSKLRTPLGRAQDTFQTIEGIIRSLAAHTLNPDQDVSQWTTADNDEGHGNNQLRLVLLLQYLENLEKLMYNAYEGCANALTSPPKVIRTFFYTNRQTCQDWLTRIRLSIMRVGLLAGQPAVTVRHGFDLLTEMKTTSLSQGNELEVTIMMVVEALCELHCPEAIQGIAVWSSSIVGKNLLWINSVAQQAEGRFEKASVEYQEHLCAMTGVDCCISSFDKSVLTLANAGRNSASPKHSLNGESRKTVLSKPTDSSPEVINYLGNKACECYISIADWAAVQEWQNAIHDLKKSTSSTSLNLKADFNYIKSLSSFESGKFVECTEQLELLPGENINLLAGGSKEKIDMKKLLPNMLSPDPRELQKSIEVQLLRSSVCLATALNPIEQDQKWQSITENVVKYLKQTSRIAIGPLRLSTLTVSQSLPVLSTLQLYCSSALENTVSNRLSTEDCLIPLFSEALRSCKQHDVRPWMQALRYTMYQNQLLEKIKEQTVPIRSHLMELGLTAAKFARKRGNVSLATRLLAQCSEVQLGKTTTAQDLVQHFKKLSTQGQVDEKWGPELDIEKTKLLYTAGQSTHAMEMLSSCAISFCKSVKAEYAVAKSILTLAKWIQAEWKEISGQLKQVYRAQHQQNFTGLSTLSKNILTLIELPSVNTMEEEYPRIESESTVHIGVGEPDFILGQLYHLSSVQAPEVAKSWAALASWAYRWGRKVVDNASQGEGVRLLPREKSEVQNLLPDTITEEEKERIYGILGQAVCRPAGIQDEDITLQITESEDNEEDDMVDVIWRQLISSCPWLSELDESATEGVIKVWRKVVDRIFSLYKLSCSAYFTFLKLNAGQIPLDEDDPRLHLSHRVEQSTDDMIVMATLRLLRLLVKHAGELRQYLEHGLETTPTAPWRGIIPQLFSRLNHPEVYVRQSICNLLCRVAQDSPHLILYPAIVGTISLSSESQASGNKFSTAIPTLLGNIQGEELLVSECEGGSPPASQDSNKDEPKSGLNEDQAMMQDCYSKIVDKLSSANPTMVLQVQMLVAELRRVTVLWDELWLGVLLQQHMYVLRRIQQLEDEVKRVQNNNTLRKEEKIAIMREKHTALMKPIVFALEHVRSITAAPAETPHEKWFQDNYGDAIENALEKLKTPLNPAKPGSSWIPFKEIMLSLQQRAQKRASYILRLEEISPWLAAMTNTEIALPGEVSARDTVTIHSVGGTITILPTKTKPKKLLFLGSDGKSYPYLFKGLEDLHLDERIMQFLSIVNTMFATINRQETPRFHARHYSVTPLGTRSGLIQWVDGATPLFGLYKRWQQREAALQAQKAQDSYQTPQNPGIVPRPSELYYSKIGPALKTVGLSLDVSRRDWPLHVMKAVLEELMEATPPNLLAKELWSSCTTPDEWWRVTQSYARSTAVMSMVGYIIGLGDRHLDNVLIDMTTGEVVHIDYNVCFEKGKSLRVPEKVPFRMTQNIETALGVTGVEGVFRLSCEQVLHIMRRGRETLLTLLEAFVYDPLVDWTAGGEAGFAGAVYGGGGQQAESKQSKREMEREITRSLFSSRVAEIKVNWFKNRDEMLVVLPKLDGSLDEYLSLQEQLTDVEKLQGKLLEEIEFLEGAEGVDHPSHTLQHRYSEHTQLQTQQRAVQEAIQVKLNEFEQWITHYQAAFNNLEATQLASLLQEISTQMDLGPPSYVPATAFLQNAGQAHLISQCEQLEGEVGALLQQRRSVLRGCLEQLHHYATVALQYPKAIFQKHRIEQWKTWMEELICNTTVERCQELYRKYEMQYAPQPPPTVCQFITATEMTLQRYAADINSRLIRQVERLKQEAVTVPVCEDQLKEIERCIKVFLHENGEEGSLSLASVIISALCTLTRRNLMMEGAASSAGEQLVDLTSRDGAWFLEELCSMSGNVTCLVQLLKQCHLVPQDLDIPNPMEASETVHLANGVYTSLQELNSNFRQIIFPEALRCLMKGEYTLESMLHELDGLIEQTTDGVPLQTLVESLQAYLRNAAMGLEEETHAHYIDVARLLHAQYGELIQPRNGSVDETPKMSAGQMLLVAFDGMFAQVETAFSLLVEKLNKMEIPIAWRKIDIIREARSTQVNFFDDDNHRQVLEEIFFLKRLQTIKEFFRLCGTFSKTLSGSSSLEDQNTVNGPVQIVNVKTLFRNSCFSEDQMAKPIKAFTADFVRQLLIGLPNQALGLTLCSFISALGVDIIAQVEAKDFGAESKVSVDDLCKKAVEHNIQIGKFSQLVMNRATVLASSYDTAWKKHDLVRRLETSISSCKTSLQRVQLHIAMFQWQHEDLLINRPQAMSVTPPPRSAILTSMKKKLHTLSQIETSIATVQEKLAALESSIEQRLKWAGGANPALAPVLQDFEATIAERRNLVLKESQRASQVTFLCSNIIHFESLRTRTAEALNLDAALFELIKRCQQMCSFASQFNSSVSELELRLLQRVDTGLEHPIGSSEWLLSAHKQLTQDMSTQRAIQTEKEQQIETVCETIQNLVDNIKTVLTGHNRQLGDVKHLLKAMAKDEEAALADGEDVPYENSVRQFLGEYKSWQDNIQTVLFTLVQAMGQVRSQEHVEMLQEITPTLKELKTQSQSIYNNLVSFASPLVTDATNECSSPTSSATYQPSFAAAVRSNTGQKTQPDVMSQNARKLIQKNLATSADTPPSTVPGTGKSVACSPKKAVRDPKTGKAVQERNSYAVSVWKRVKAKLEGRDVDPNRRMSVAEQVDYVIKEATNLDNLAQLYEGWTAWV

Target | probe-labelled cysteine peptide fold change (10 µM) | probe-labelled cysteine peptide fold change (50 µM)
SMCHD1_A6NHR9_1445_DNDKEDGCFYFR (UniProt A6NHR9) | -0.0116 | 0.0208
SMG8_Q8ND04_611_STGACNCGR (UniProt Q8ND04) | -0.00939 | -0.0993
SNRNP200_O75643_588_EEISATQIIVCTPEK (UniProt O75643) | 0.232 | 0.241
SMCHD1_A6NHR9_505_GLAPIECYNR (UniProt A6NHR9) | 0.0869 | 0.0307
SMARCA5_O60264_283_DVLLPGEWDVCVTSYEMLIK (UniProt O60264) | 0.253 | -0.148
SLC4A7_Q9Y6M7_120_VQFILGTEDDDEEHIPHDLFTEMDELCYR (UniProt Q9Y6M7) | 0.222 | -0.577
SNRNP200_O75643_1127_RMWQSMCPLR (UniProt O75643) | -0.0203 | 0.0949
SMN2_Q16637_123_ETCVVVYTGYGNR (UniProt Q16637) | 0.21 | 0.222
SLC4A1AP_Q9BWU0_200_LSGCDVCLEHPSVSR (UniProt Q9BWU0) | 0.136 | 0.0426
SND1_Q7KZF4_96_EVCFTIENK (UniProt Q7KZF4) | 0.00729 | 0.0683
SNRNP200_O75643_1592_FLHCTEK (UniProt O75643) | 0.133 | 0.0176
SMYD5_Q6GMV2_101_LTGKPGQVLPHPELCTVR (UniProt Q6GMV2) | -0.0205 | 0.00693
SMC6_Q96SB8_58_NFMCHSMLGPFK (UniProt Q96SB8) | -0.116 | -0.00986
SMS_P52788_237_TCGDVLDNLK (UniProt P52788) | -0.0498 | -0.0527
SMC1A_Q14683_613_ALQYACGNALVCDNVEDARR (UniProt Q14683) | 0.255 | 0.0466
SMCHD1_A6NHR9_474_GKRPIFECFWNGR (UniProt A6NHR9) | -0.236 | -0.171
SMARCC2_Q8TAQ2_486_LNPQEYLTSTACR (UniProt Q8TAQ2) | -0.0315 | -0.203
SLFN13_Q68D06_884_TADPAILPNILICLASR (UniProt Q68D06) | 0.134 | -0.00266
SMCHD1_A6NHR9_970_LIVHCK (UniProt A6NHR9) | -0.0836 | 0.11
SMG8_Q8ND04_755_QASTVEYLPGMLHSNCPK (UniProt Q8ND04) | -0.0995 | -0.0245
SNRNP200_O75643_576_RLATYGITVAELTGDHQLCK (UniProt O75643) | -0.0593 | 0.102

Record cards (already shown).
SMARCC2_Q8TAQ2_486_LNPQEYLTSTACR (UniProt Q8TAQ2) as listed: probe-labelled cysteine peptide fold change (10 µM): -0.0315; probe-labelled cysteine peptide fold change (50 µM): -0.203
SNRNP200_O75643_1592_FLHCTEK (UniProt O75643) as listed: probe-labelled cysteine peptide fold change (10 µM): 0.133; probe-labelled cysteine peptide fold change (50 µM): 0.0176

(listing goes on)

Target | probe-labelled cysteine peptide fold change (10 µM) | probe-labelled cysteine peptide fold change (50 µM)
SMCHD1_A6NHR9_444_YHPFLYDRETYPDDPCFPSK (UniProt A6NHR9) | -0.0194 | -0.197
SLU7_O95391_469_EIVNSEECIINEITGEESVK (UniProt O95391) | 0.44 | 0.0302
SMARCA4_P51532_998_CDMSALQR (UniProt P51532) | 0.13 | 0.146
SMPD4_Q9NXE4_164_ASIQECILPDSPLYHNK (UniProt Q9NXE4) | 0.0166 | -0.046
SMAP2_Q8WU79_80_SVNLDQWTQEQIQCMQEMGNGK (UniProt Q8WU79) | 0.0063 | 0.00761
SLC7A1_P30825_628_TPDGNLDQCK (UniProt P30825) | -0.151 | -0.138
SMG1_Q96Q15_3587_SVACSPK (UniProt Q96Q15) | -0.0485 | -0.0697
SLK_Q9H2G2_1138_DLQLQCEANVR (UniProt Q9H2G2) | -0.0984 | -0.119
SLX4_Q8IY92_318_CLDEAEK (UniProt Q8IY92) | -0.117 | 0.0935
SNRNP40_Q96DI7_168_RGPQLVCTGSDDGTVK (UniProt Q96DI7) | -0.162 | -0.0415
SMAD3_P84022_394_QTVTSTPCWIELHLNGPLQWLDK (UniProt P84022) | -0.159 | -0.000492
SLU7_O95391_455_YSYCTGEAGK (UniProt O95391) | 0.0886 | 0.134
SMN2_Q16637_107_CSAIWSEDGCIYPATIASIDFKR (UniProt Q16637) | -0.144 | -0.263
SLC35B1_P78383_119_SCKPIPVMLLGVTLLK (UniProt P78383) | -0.942 | 0.0401
SMYD5_Q6GMV2_101_LTGKPGQVLPHPELCTVRK (UniProt Q6GMV2) | -0.263 | -0.188
SMG1_Q96Q15_1245_FVECTEQLELLPGENINLLAGGSK (UniProt Q96Q15) | 0.178 | -0.153
SMC4_Q9NTJ3_323_NHVCQYYIYELQK (UniProt Q9NTJ3) | 0.0622 | -0.0168
SMAD4_Q13485_123+127_CDSVCVNPYHYER (UniProt Q13485) | 0.0654 | 0.0144
SMURF2_Q9HAU4_47_VVVDGSGQCHSTDTVK (UniProt Q9HAU4) | 0.116 | -0.253
SLC9A3R1_O14745_15_LCCLEK (UniProt O14745) | -0.0798 | -0.136
SNRNP200_O75643_428_RCQLPDGSFR (UniProt O75643) | 0.0603 | -0.0144
